{"source": "patent US20100152434A1", "about": "“Protein Kinase-binding Nucleosides and Associated Methods” (priority 2007, published 2010)", "note": "Where two headings read alike, the source gives them in different places."}
{"smiles": "CNC(=O)NC[C@H]1O[C@@H](n2cnc3c(NC(=O)Nc4ccccc4)ncnc32)[C@H](O[Si](C)(C)C(C)(C)C)[C@@H]1CC(=O)N(C)OC", "note": "[Compound 13, 2′-O-(tert-Butyldimethylsilyl)-3′,5′-dideoxy-3′-[(N-methoxy-N-methylcarboxamido)methyl]-5′-[(N-methylcarbamoyl)amino]-N^6-(N-phenylcarbamoyl)adenosine]", "values": [{"measurement": "Mean Optical Densities", "setting": "SN12C; Log10 Concentration −4.0", "value": 1.150}, {"measurement": "Mean Optical Densities", "setting": "SN12C; Log10 Concentration −5.0", "value": 1.380}, {"measurement": "Mean Optical Densities", "setting": "SN12C; Log10 Concentration −6.0", "value": 1.795}, {"measurement": "Mean Optical Densities", "setting": "SN12C; Log10 Concentration −7.0", "value": 1.902}, {"measurement": "Mean Optical Densities", "setting": "SN12C; Log10 Concentration −8.0", "value": 1.929}, {"measurement": "Mean Optical Densities", "setting": "HCT-15; Log10 Concentration −4.0", "value": 0.875}, {"measurement": "Mean Optical Densities", "setting": "HCT-15; Log10 Concentration −5.0", "value": 0.927}, {"measurement": "Mean Optical Densities", "setting": "HCT-15; Log10 Concentration −6.0", "value": 1.812}, {"measurement": "Mean Optical Densities", "setting": "HCT-15; Log10 Concentration −7.0", "value": 1.827}, {"measurement": "Mean Optical Densities", "setting": "HCT-15; Log10 Concentration −8.0", "value": 1.868}, {"measurement": "Mean Optical Densities", "setting": "SK-MEL-2; Log10 Concentration −4.0", "value": 0.361}, {"measurement": "Mean Optical Densities", "setting": "SK-MEL-2; Log10 Concentration −5.0", "value": 0.594}, {"measurement": "Mean Optical Densities", "setting": "SK-MEL-2; Log10 Concentration −6.0", "value": 0.699}, {"measurement": "Mean Optical Densities", "setting": "SK-MEL-2; Log10 Concentration −7.0", "value": 0.669}, {"measurement": "Mean Optical Densities", "setting": "SK-MEL-2; Log10 Concentration −8.0", "value": 0.675}, {"measurement": "Mean Optical Densities", "setting": "OVCAR-4; Log10 Concentration −4.0", "value": 0.792}, {"measurement": "Mean Optical Densities", "setting": "OVCAR-4; Log10 Concentration −5.0", "value": 0.917}, {"measurement": "Mean Optical Densities", "setting": "OVCAR-4; Log10 Concentration −6.0", "value": 1.258}, {"measurement": "Mean Optical Densities", "setting": "OVCAR-4; Log10 Concentration −7.0", "value": 1.288}, {"measurement": "Mean Optical Densities", "setting": "OVCAR-4; Log10 Concentration −8.0", "value": 1.296}, {"measurement": "Mean Optical Densities", "setting": "NCI/ADR-RES; Log10 Concentration −4.0", "value": 1.139}, {"measurement": "Mean Optical Densities", "setting": "NCI/ADR-RES; Log10 Concentration −5.0", "value": 1.361}, {"measurement": "Mean Optical Densities", "setting": "NCI/ADR-RES; Log10 Concentration −6.0", "value": 1.675}, {"measurement": "Mean Optical Densities", "setting": "NCI/ADR-RES; Log10 Concentration −7.0", "value": 1.717}, {"measurement": "Mean Optical Densities", "setting": "NCI/ADR-RES; Log10 Concentration −8.0", "value": 1.717}, {"measurement": "Mean Optical Densities", "setting": "SK-MEL-5; Log10 Concentration −4.0", "value": 0.674}, {"measurement": "Mean Optical Densities", "setting": "SK-MEL-5; Log10 Concentration −5.0", "value": 0.973}, {"measurement": "Mean Optical Densities", "setting": "SK-MEL-5; Log10 Concentration −6.0", "value": 1.522}, {"measurement": "Mean Optical Densities", "setting": "SK-MEL-5; Log10 Concentration −7.0", "value": 1.622}, {"measurement": "Mean Optical Densities", "setting": "SK-MEL-5; Log10 Concentration −8.0", "value": 1.690}, {"measurement": "Mean Optical Densities", "setting": "HCC-2998; Log10 Concentration −4.0", "value": 1.447}, {"measurement": "Mean Optical Densities", "setting": "HCC-2998; Log10 Concentration −5.0", "value": 2.005}, {"measurement": "Mean Optical Densities", "setting": "HCC-2998; Log10 Concentration −6.0", "value": 2.593}, {"measurement": "Mean Optical Densities", "setting": "HCC-2998; Log10 Concentration −7.0", "value": 2.536}, {"measurement": "Mean Optical Densities", "setting": "HCC-2998; Log10 Concentration −8.0", "value": 2.630}, {"measurement": "Mean Optical Densities", "setting": "RXF 393; Log10 Concentration −4.0", "value": 0.448}, {"measurement": "Mean Optical Densities", "setting": "RXF 393; Log10 Concentration −5.0", "value": 0.942}, {"measurement": "Mean Optical Densities", "setting": "RXF 393; Log10 Concentration −6.0", "value": 1.182}, {"measurement": "Mean Optical Densities", "setting": "RXF 393; Log10 Concentration −7.0", "value": 1.194}, {"measurement": "Mean Optical Densities", "setting": "RXF 393; Log10 Concentration −8.0", "value": 1.209}, {"measurement": "Mean Optical Densities", "setting": "MDA-MB-231/ATCC; Log10 Concentration −4.0", "value": 0.417}, {"measurement": "Mean Optical Densities", "setting": "MDA-MB-231/ATCC; Log10 Concentration −5.0", "value": 0.704}, {"measurement": "Mean Optical Densities", "setting": "MDA-MB-231/ATCC; Log10 Concentration −6.0", "value": 0.933}, {"measurement": "Mean Optical Densities", "setting": "MDA-MB-231/ATCC; Log10 Concentration −7.0", "value": 0.990}, {"measurement": "Mean Optical Densities", "setting": "MDA-MB-231/ATCC; Log10 Concentration −8.0", "value": 0.947}, {"measurement": "Mean Optical Densities", "setting": "UACC-62; Log10 Concentration −4.0", "value": 1.418}, {"measurement": "Mean Optical Densities", "setting": "UACC-62; Log10 Concentration −5.0", "value": 1.969}, {"measurement": "Mean Optical Densities", "setting": "UACC-62; Log10 Concentration −6.0", "value": 2.473}, {"measurement": "Mean Optical Densities", "setting": "UACC-62; Log10 Concentration −7.0", "value": 2.666}, {"measurement": "Mean Optical Densities", "setting": "UACC-62; Log10 Concentration −8.0", "value": 2.580}, {"measurement": "Mean Optical Densities", "setting": "HCT-116; Log10 Concentration −4.0", "value": 0.230}, {"measurement": "Mean Optical Densities", "setting": "HCT-116; Log10 Concentration −5.0", "value": 0.437}, {"measurement": "Mean Optical Densities", "setting": "HCT-116; Log10 Concentration −6.0", "value": 1.057}, {"measurement": "Mean Optical Densities", "setting": "HCT-116; Log10 Concentration −7.0", "value": 1.070}, {"measurement": "Mean Optical Densities", "setting": "HCT-116; Log10 Concentration −8.0", "value": 1.098}, {"measurement": "Mean Optical Densities", "setting": "SF-268; Log10 Concentration −4.0", "value": 0.726}, {"measurement": "Mean Optical Densities", "setting": "SF-268; Log10 Concentration −5.0", "value": 0.952}, {"measurement": "Mean Optical Densities", "setting": "SF-268; Log10 Concentration −6.0", "value": 1.339}, {"measurement": "Mean Optical Densities", "setting": "SF-268; Log10 Concentration −7.0", "value": 1.454}, {"measurement": "Mean Optical Densities", "setting": "SF-268; Log10 Concentration −8.0", "value": 1.394}, {"measurement": "Mean Optical Densities", "setting": "HS 578T; Log10 Concentration −4.0", "value": 0.567}, {"measurement": "Mean Optical Densities", "setting": "HS 578T; Log10 Concentration −5.0", "value": 0.703}, {"measurement": "Mean Optical Densities", "setting": "HS 578T; Log10 Concentration −6.0", "value": 0.912}, {"measurement": "Mean Optical Densities", "setting": "HS 578T; Log10 Concentration −7.0", "value": 0.989}, {"measurement": "Mean Optical Densities", "setting": "HS 578T; Log10 Concentration −8.0", "value": 0.992}, {"measurement": "Mean Optical Densities", "setting": "KM12; Log10 Concentration −4.0", "value": 0.513}, {"measurement": "Mean Optical Densities", "setting": "KM12; Log10 Concentration −5.0", "value": 0.743}, {"measurement": "Mean Optical Densities", "setting": "KM12; Log10 Concentration −6.0", "value": 1.063}, {"measurement": "Mean Optical Densities", "setting": "KM12; Log10 Concentration −7.0", "value": 1.079}, {"measurement": "Mean Optical Densities", "setting": "KM12; Log10 Concentration −8.0", "value": 1.023}, {"measurement": "Mean Optical Densities", "setting": "NCI-H460; Log10 Concentration −4.0", "value": 0.669}, {"measurement": "Mean Optical Densities", "setting": "NCI-H460; Log10 Concentration −5.0", "value": 0.966}, {"measurement": "Mean Optical Densities", "setting": "NCI-H460; Log10 Concentration −6.0", "value": 1.674}, {"measurement": "Mean Optical Densities", "setting": "NCI-H460; Log10 Concentration −7.0", "value": 1.726}, {"measurement": "Mean Optical Densities", "setting": "NCI-H460; Log10 Concentration −8.0", "value": 1.776}, {"measurement": "Mean Optical Densities", "setting": "DU-145; Log10 Concentration −4.0", "value": 0.357}, {"measurement": "Mean Optical Densities", "setting": "DU-145; Log10 Concentration −5.0", "value": 0.578}, {"measurement": "Mean Optical Densities", "setting": "DU-145; Log10 Concentration −6.0", "value": 0.802}, {"measurement": "Mean Optical Densities", "setting": "DU-145; Log10 Concentration −7.0", "value": 0.842}, {"measurement": "Mean Optical Densities", "setting": "DU-145; Log10 Concentration −8.0", "value": 0.821}, {"measurement": "Mean Optical Densities", "setting": "RPMI-8226; Log10 Concentration −4.0", "value": 0.890}, {"measurement": "Mean Optical Densities", "setting": "RPMI-8226; Log10 Concentration −5.0", "value": 0.794}, {"measurement": "Mean Optical Densities", "setting": "RPMI-8226; Log10 Concentration −6.0", "value": 1.785}, {"measurement": "Mean Optical Densities", "setting": "RPMI-8226; Log10 Concentration −7.0", "value": 2.027}, {"measurement": "Mean Optical Densities", "setting": "RPMI-8226; Log10 Concentration −8.0", "value": 1.911}]}
